According to patent publication US20180230398A1, “PERFUME SYSTEMS” (The Procter & Gamble Company, priority 2014, published 2018):

assay: Character description (odour character) of the PRMs of Table 1; conditions: odour character in words

Structure (SMILES) | Character description
C=CCC1(CO)CCC(C)=C(C)C1 (racemic) [Molecule 135, (1-(R,S)-allyl-3,4-dimethyl-cyclohex-3-enyl)methanol] | pine, indolic
COC(=O)[C@]1(C)CCC(C)[C@@H](C)C1 (stereo partly drawn) [Molecule 71, (R,S)-methyl 1,3,4-trimethylcyclohex-anecarboxylate] | fruity (grapefruit)
CC(C)=C1CC[C@H](C)[C@H]1C(C)(C)O [Molecule 96, (R,S)-2-(2-methyl-5-(propan-2-ylidene)cyclopent-yl)propan-2-ol] | woody, minty
CC(C)=CCCC1(C)COC(C)(C)CO1 (racemic) [Molecule 61, 2,2,5-trimethyl-5-(R,S)-(4-methylpent-3-en-1-yl)-1,3-dioxane] | nutty, creamy
CC(=O)OC[C@@H]1CCC(C)[C@@H](C)C1 (stereo partly drawn) [Molecule 79, (R,S)-(3,4-dimethyl-cyclohexyl)meth-yl acetate] | rose, fruity
COC(=O)C(C)(C)CC=C(C)C [Molecule 100, methyl 2,2,5-trimethylhex-4-enoate] | floral (chamomile), aromatic, citrus
CCCOC(=O)C1CCC(C)=C(C)C1 (racemic) [Molecule 64, (R,S)-propyl 3,4-dimethyl-cyclohex-3-enecarboxylate] | white floral
COC(=O)CCCC/C=C/C(C)C [Molecule 8, methyl 8-methylnon-6-enoate] | fruity
COC(=O)C(C)(C)Cc1ccccc1C [Molecule 109, methyl 2,2-dimethyl-3-o-tolylpropanoate] | saffron, woody
CC(C)=CCCc1ccc(C)o1 [Molecule 2, 2-methyl-5-(4-methylpent-3-en-1-yl)furan] | herbal, anisic, floral
CCC1(CO)CCC(C)=C(C)C1 (racemic) [Molecule 127, (1-(R,S)-ethyl-3,4-dimethyl-cyclohex-3-enyl)methanol] | floral, lilac
CCCCOC(=O)[C@@H]1CCC(C)[C@@H](C)C1 (stereo partly drawn) [Molecule 67, (R,S)-butyl 3,4-dimethylcyclohex-anecarboxylate] | fruity, floral
CCC(=O)C1(CC)CCC(C)=C(C)C1 (racemic) [Molecule 59, 1-(1-(R,S)-ethyl-3,4-dimethyl-cyclohex-3-enyl)propan-1-one] | herbal (coriander)
O=Cc1ccc(O)c(OCC2CC2)c1 [Molecule 38, 3-(cyclopropyl-methoxy)-4-hydroxybenz-aldehyde] | sweet, floral, anisic
CC1=C(C)C[C@](C)([C@@H](C)OC=O)C(C)C1 (stereo partly drawn) [Molecule 94, (R,S)-1-(1,3,4,6-tetramethyl-cyclohex-3-enyl)ethyl formate] | violet, woody
CC1=C(C)CC(C)(C(C)(C)O)CC1 (racemic) [Molecule 138, 2-(1-(R,S)-,3,4-trimethylcyclohex-3-enyl)propan-2-ol] | floral
CC1=C(C)CC(C)(CO)CC1 (racemic) [Molecule 131, (1-(R,S)-,3,4-trimethylcyclohex-3-enyl)methanol] | woody
CC(C)=CCCC1(C#N)CCC(C)=C(C)C1 (racemic) [Molecule 28, 3,4-dimethyl-1-(R,S)-(4-methylpent-3-en-1-yl)cyclohex-3-enecarbonitrile] | green
CC1CC=CC[C@]1(C)[C@@H](C)O (stereo partly drawn) [Molecule 93, (R,S)-1-(1,6-dimethylcyclohex-3-enyl)ethanol] | earthy (moss)
CCCC1(C(=O)OC)CCC(C)=C(C)C1 (racemic) [Molecule 130, methyl 3,4-dimethyl-1-(R,S)-propylcyclohex-3-enecarboxylate] | violet, fruity, herbal
CCC(C)(CC=C(C)C)C(C)O (racemic) [Molecule 18, 3-(R,S)-ethyl-3,6-dimethylhept-5-en-2-ol] | floral herbal (lilac, pine), clean
CC(C)=C1CC[C@H](C)[C@H]1COC=O [Molecule 90, (R,S)-(2-methyl-5-(propan-2-ylidene)cyclopent-yl)methyl formate] | woody
CC1=C(C)CC(C#N)(C(C)C)CC1 (racemic) [Molecule 53, 1-(R,S)-isopropyl-3,4-dimethylcyclohex-3-enecarbonitrile] | spicy, clean linen
C=CCC1(C(C)=O)CCC(C)=C(C)C1 (racemic) [Molecule 46, 1-(1-(R,S)-allyl-3,4-dimethyl-cyclohex-3-en-1-yl)ethanone] | herbal (lavender), citrus, sweet
CC(=O)C1(C)CCCCC1C (centres unmarked) [Molecule 91, 1-(1,2-dimethyl-cyclohexyl)ethan-one] | woody, earthy camphoraceous
CC(=O)O[C@H](C)[C@@]1(C)CCC(C)C(C)C1 (stereo partly drawn) [Molecule 81, (R,S)-1-(1,3,4-trimethylcyclohex-yl)ethyl acetate] | balsamic, sweet
CC(=O)OCC1(C)CCC(C)=C(C)C1 (racemic) [Molecule 73, (1-(R,S),3,4-trimethylcyclohex-3-enyl)methyl acetate] | spicy, acidic

Structure (SMILES) | Character description
CC1=C(C)CC(c2ccccc2)C(C=O)C1 (centres unmarked) [Molecule 118, 4,5-dimethyl-1,2,3,6-tetrahydro-[1,1′-biphenyl]-2-carbaldehyde] | floral, fruity, cherry
Cc1ccc(C2C=CCCC2)o1 (racemic) [Molecule 7, 2-(cyclohex-2-en-1-(R,S)-yl)-5-methylfuran] | green (chervil), herbal
CC(=O)[C@]1(C)CC(C)C(C)C[C@@H]1C (stereo partly drawn) [Molecule 87, (R,S)-1-(1,2,4,5-tetramethylcyclo-hexyl)ethanone] | woody, fruity
CCCCC(=O)C1(CC)CCC(C)=C(C)C1 (racemic) [Molecule 42, 1-(1-(R,S)-ethyl-3,4-dimethyl-cyclohex-3-en-1-yl)pentan-1-one] | chewing gum (fruity)
CCOC(=O)[C@@H]1CCC(C)[C@@H](C)C1 (stereo partly drawn) [Molecule 106, (R,S)-ethyl 3,4-dimethylcyclohex-anecarboxylate] | fruity (chewing gum), pineapple- strawberry- red apple
CC(=O)OC[C@H]1C(=C(C)C)CC[C@@H]1C [Molecule 92, (R,S)-(2-methyl-5-(propan-2-ylidene)cyclopent-yl)methyl acetate] | woody, violet
CCCCC(O)C1(C)CCC(C)=C(C)C1 (racemic) [Molecule 43, 1-(1-(R,S)-methyl-3,4-dimethyl-cyclohex-3-en-1-yl)pentan-1-ol] | fruity, herbal, chamomile
CC1=C(C)C[C@](C)([C@@H](C)O)CC1 (racemic) [Molecule 25, 1-(R,S)-(1-(R,S),3,4-trimethyl-cyclohex-3-en-1-yl)ethanol] | clean, pine, floral (lily of the valley)
COC(=O)C1CCC(C)=C(C)C1 (racemic) [Molecule 123, methyl 3,4-dimethylcyclohex-3-ene-(R,S)-carboxylate] | banana skin
CC(C)=CCC1(C(C)O)CCC(C)=C(C)C1 (racemic) [Molecule 56, 1-(R,S)-(3,4-dimethyl-1-(3-methylbut-2-enyl)cyclohex-3-enyl)ethanol] | herbal, citrus
CCOc1cc(C(=O)C(C)(C)C)ccc1O [Molecule 36, 1-(3-ethoxy-4-hydroxyphenyl)-2,2-dimethylpropan-1-one] | sweet, dusty
CC1CC[C@@](C)(COC=O)C[C@@H]1C (stereo partly drawn) [Molecule 77, (R,S)-(1,3,4-trimethyl-cyclohexyl)meth-yl formate] | violet, floral
CC(=O)C1(CC=C(C)C)CCC(C)=C(C)C1 (racemic) [Molecule 26, 1-(3,4-dimethyl-1-(R,S)-(3-methylbut-2-en-1-yl)cyclohex-3-en-1-yl)ethanone] | clean, floral, woody (pine), green
COC(=O)C1(CC=C(C)C)CCC(C)=C(C)C1 (racemic) [Molecule 133, methyl 3,4-dimethyl-1-(R,S)-(3-methylbut-2-enyl)cyclohex-3-enecarboxylate] | citronella, clean
CC1=C(C)C[C@](C)([C@@H](C)O)C(C)C1 (stereo partly drawn) [Molecule 86, (R,S)-1-(1,3,4,6-tetra-methylcyclohex-3-enyl)ethanol] | lilac
Cc1ccc(CC(C)(C)CO)cc1 [Molecule 115, 2,2-dimethyl-3-p-tolylpropan-1-ol] | violet, minty
CC(C)=CCC(C)(C)CO [Molecule 101, 2,2,5-trimethylhex-4-en-1-ol] | lilac, clean
COC(=O)C(C)(C)Cc1cccc(C)c1 [Molecule 102, methyl 2,2-dimethyl-3-m-tolylpropanoate] | cyclamen, herbal
CC(=O)O[C@H](C)[C@@]1(C)CC=CCC1C (stereo partly drawn) [Molecule 99, (R,S)-1-(1,6-dimethylcyclohex-3-enyl)ethyl acetate] | violet, fruity
CC1=C(C)CC(C)(C(=O)CC(C)C)CC1 (racemic) [Molecule 54, 3-methyl-1-(1-(R,S),3,4-trimethylcyclohex-3-enyl)butan-1-one] | green, unripe fruit, malt (beer)
CCC(C)(C#N)CCC=C(C)C (racemic) [Molecule 11, 2-(R,S)-ethyl-2,6-dimethylhept-5-enenitrile] | herbal (fennel), fruity
CCCCC(=O)C(C)(CC)CC=C(C)C (racemic) [Molecule 19, 6-(R,S)-ethyl-6,9-dimethyldec-8-en-5-one] | woody, leathery
CCC(C)(C#N)CC=C(C)C (racemic) [Molecule 16, 2-(R,S)-ethyl-2,5-dimethylhex-4-enenitrile] | herbal, minty (carway), spicy (celery)
CCCC1(C(C)O)CCC(C)=C(C)C1 (racemic) [Molecule 49, 1-(3,4-dimethyl-1-(R,S)propyl-cyclohex-3-en-1-yl)ethanol] | hay, carrotseed
CC1=C(C)CC(C)(C#N)CC1 (racemic) [Molecule 22, 1-(R,S)-,3,4-trimethylcyclohex-3-enecarbonitrile] | herbal, spicy (nutty)
CC(C)CCC(C)(C)C(C)O (racemic) [Molecule 63, 3,3,6-trimethylheptan-2-(R,S)-ol] | herbal (lilac), citrus

Structures can show the parent of a compound that is named as a salt.
